Chains of the proteins cited; added tags and fusions are not shown. Lines headed by an entry give the natural chain unless they say otherwise; changes in a name come on top.
UniProt P51450: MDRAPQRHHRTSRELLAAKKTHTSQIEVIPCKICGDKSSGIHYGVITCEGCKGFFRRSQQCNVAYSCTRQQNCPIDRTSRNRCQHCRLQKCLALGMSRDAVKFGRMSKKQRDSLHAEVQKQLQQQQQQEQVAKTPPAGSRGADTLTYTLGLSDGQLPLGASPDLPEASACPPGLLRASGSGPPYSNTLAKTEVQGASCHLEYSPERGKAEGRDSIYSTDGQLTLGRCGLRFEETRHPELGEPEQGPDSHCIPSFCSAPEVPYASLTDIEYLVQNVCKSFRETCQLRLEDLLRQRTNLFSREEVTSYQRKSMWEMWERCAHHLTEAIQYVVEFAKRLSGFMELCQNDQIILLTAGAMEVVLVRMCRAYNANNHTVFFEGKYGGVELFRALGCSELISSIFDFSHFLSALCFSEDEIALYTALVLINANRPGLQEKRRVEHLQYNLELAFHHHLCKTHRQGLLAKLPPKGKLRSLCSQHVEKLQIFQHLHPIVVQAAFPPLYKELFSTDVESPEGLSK

In all, about 310,000 compounds went through this assay and about 17,000 (5.5%) were called active. Inconclusive means that the source gave no clear call. Such entries were picked first, then a sample of the others. Calls come from the whole dose curve; as a rule, active = well fitted inhibition curve with a large enough effect; inconclusive = small, poorly fitted or top-dose-only effect, or effect the other way; inactive = no such curve, though single readings can be large or run the other way. Where the call is inconclusive, the potency comes from a doubtful curve fit.
The molecules below were run against Nuclear receptor ROR-gamma (Mus musculus) (UniProt P51450) (assay: qHTS for inhibitors of ROR gamma transcriptional activity). Conditions: Drosophila S2 Gal4-RORgamma UAS-luciferase reporter, 20 h; activity change, negative = inhibition: at 53.6 µM (top of the series).
How it was run: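 Read-out: Photinus luciferase luminescence; inhibitors lower reporter signal. Insect Schneider cells with Gal4-ROR gamma fusion under metallothionein promoter, UAS reporter; 700 uM final copper sulfate induction, 20 hr, ambient temperature.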
In the case of `O=C(CCn1cccn1)N1CCCC(N2CCN(c3cccc(Cl)c3)CC2)C1` (centres undefined), the Potency is reported as inconclusive: 7.94 µM [activator, partial curve].
For `Cc1cccc(Cc2cnc(N3C(=N)SC(C)C3=O)s2)c1` (centres undefined), the Potency was active: 0.355 µM.
In the case of `COc1cc(/C=N/Nc2ccc(C(=O)O)cc2)cc(OC)c1OC`, the Potency is reported as inconclusive: 8.91 µM [inhibitor, partial curve, poor fit].
`Cc1cccc(N=Nc2c(C)[nH]n(C(N)=S)c2=O)c1C` was tested, and the Potency was active: 0.398 µM.
`Cc1nnc(NC(=O)c2cccc(F)c2)s1` was tested, and the Potency was inconclusive: 6.31 µM [inhibitor, single point].
For `Cc1cccc(OCCCc2c(C)n[nH]c2C)c1`, the Potency was active: 11.2 µM.
For `CC(C)CCN(C(=O)Nc1ccccc1)C(C)c1cccs1` (centres undefined), the Potency was “inactive”.
For `Cc1nc(Nc2ccccc2F)c2oc3ccccc3c2n1`, the Potency was “inactive”.
For `O=C(Nc1ccc(Cl)cc1)Nn1cnnc1`, the Potency was “inactive”.
`COc1ccccc1C1C([N+](=O)[O-])=CC([N+](=O)[O-])=CN1C` (centres undefined) was tested, and the Potency was inconclusive: 35.5 µM [inhibitor, single point].
In the case of `O=C(CCCN1C(=O)S/C(=C\c2ccccc2)C1=O)NNC(=O)c1ccccc1O`, the Potency is reported as active: 0.447 µM.
In the case of `CCn1c2ccccc2c2cc(/C=N/NC(=O)c3ccccc3C)ccc21`, the Potency is reported as inconclusive: 10 µM [inhibitor, partial curve].
In the case of `CCOC(=O)N1CCC(NS(=O)(=O)c2cc(Br)cnc2N)CC1`, the Potency is reported as inconclusive: 0.562 µM [activator, full curve, poor fit].
For `Cc1ccc(/C(=N/Nc2nc3ccccc3s2)C2=C(O)c3ccccc3C2=O)cc1`, the Potency was active: 4.47 µM.
With `O=C(COc1ccccc1[N+](=O)[O-])N/N=C/C=C/c1ccco1` the Potency was inconclusive: 35.5 µM [inhibitor, single point].
In the case of `COc1ccccc1NC(=S)Nc1cccc2cnccc12`, the Potency is reported as inconclusive: 35.5 µM [activator, single point].
With `COc1ccccc1N=Cc1c(O)c2ccccc2oc1=O` the Potency was “inactive”.
`O=C1c2ccccc2CC1Sc1nnc(-c2ccccn2)o1` (centres undefined) was tested, and the Potency was inconclusive: 0.141 µM [inhibitor, single point].
With `O=C(O)c1ccc(Nc2cc(Cl)c3nonc3c2[N+](=O)[O-])cc1` the Potency was active: 12.6 µM.
`CCn1c(CN2C(=O)CSc3ccccc32)n[nH]c1=S` was tested, and the Potency was inconclusive: 7.94 µM [inhibitor, partial curve].
With `CCOc1ccccc1NC(=O)N1CCC(NC(=O)c2cccc(C)c2)CC1` the Potency was inconclusive: 20 µM [activator, single point].
`Cc1ccc(Sc2nc(-c3ccccc3)nnc2C(F)(F)F)cc1` was tested, and the Potency was inconclusive: 5.01 µM [inhibitor, full curve].
For `CCn1c(-c2ccccc2O)n[nH]c1=S`, the Potency was active: 12.6 µM.
For `COc1cc(-c2ccccc2)nc2ccccc12`, the Potency was “inactive”.
For `CN1CCCC(CN2c3ccccc3Sc3ccccc32)C1` (centres undefined), the Potency was “inactive”.
With `O=C(CNC1CCCCCC1)Nc1ccc(N2CCCC2)cc1` the Potency was “inactive”.
For `CCOC(=O)C1(CC2CC2)CCN(C(=O)c2cc(C3CC3)nc3ccccc23)CC1`, the Potency was “inactive”.
In the case of `Cc1ccc(-c2nc3ccccc3s2)cc1NC(=O)c1ccc2c(c1)OCO2`, the Potency is reported as inconclusive: 15.8 µM [activator, single point].
With `Cc1cccc(OCCCCCn2ccnc2)c1` the Potency was inconclusive: 12.6 µM [inhibitor, partial curve].
For `Cn1nc(C(=O)Nc2nc3ccccc3[nH]2)ccc1=O`, the Potency was inconclusive: 3.16 µM [activator, single point].
For `COc1ccc2[nH]c(=O)c(CN(C(=O)c3ccncc3)C(C)C)cc2c1`, the Potency was inconclusive: 22.4 µM [activator, single point].
In the case of `C[C@H](NC(=O)OC(C)(C)C)C(=O)NCC1CCC(C(=O)N[C@@H](Cc2ccccc2)C(=O)O)CC1` (some centres undefined), the Potency is reported as “inactive”.
In the case of `CCN=c1sc(C(=O)NCCc2ccccc2)cc(=O)n1CC`, the Potency is reported as inconclusive: 17.8 µM [inhibitor, single point].
In the case of `CCOc1ccccc1NC(=O)Nc1ccc(Cl)cc1`, the Potency is reported as inconclusive: 5.01 µM [activator, partial curve].
In the case of `O=C(NNC(=O)C1CC2CCC1C2)c1sc2ccccc2c1Cl` (centres undefined), the Potency is reported as inconclusive: 25.1 µM [inhibitor, single point].
In the case of `Cc1cc(C(=O)CSc2nnc3ccccn23)c(C)n1-c1ccccc1`, the Potency is reported as active: 5.01 µM.
In the case of `CCN(Cc1nc(-c2cccc(C)c2)no1)C(=O)c1ccc2c(c1)OCO2`, the Potency is reported as inconclusive: 35.5 µM [inhibitor, single point].
For `CN(CC(=O)N1CCOCC1)C(=O)CSc1nc2ccccc2s1`, the Potency was inconclusive: 5.62 µM [inhibitor, single point].
In the case of `COc1ccc(-c2nc(C#N)c(NCC3CCCO3)o2)cc1` (centres undefined), the Potency is reported as inconclusive: 20 µM [activator, single point].
`COC(=O)/C=C(\C)NC(=O)c1cccs1` was tested, and the Potency was “inactive”.
For `CC(C)Cn1c(N)c(C(=O)COC(=O)c2ccncc2)c(=O)n(C)c1=O`, the Potency was “inactive”.
For `Cc1cc(C)n(-c2ncnc3sc4c(c23)CCCC4)n1`, the Potency was “inactive”.
In the case of `CCOC(=O)OCC1OC(CCc2ccccc2)CCC1Oc1ccc(OC)cc1` (centres undefined), the activity change, negative = inhibition is reported as inactive: -0.175% [at 10 µM].
In the case of `COc1ccc(-c2[nH]c(-c3ccc(F)cc3)nc2SCC(=O)NC2CCCC2)cc1`, the Potency is reported as inconclusive: 11.2 µM [activator, partial curve].
With `Cc1ccc(-n2c(CCc3ccccc3)nnc2SCC(=O)NCc2ccccc2)cc1C` the Potency was inconclusive: 22.4 µM [inhibitor, single point].
In the case of `CCCCOC(=O)Nc1nc2ccccc2s1`, the Potency is reported as inconclusive: 7.08 µM [inhibitor, full curve, poor fit].
`CCCCOC(=O)/C=C\C(=O)NC(N)=O` was tested, and the Potency was inconclusive: 22.4 µM [inhibitor, single point].
`CCOC(=O)N1CCN(C(=O)COc2cccc3c2CCN(Cc2ccc(F)cc2)C3=O)CC1` was tested, and the Potency was inconclusive: 6.31 µM [activator, partial curve].
For `O=C(Nc1cccc(Cl)c1)NC1CC2CCC(C1)N2Cc1cccs1` (centres undefined), the Potency was inconclusive: 11.2 µM [activator, single point].
`O=C1CC(c2ccccc2)=NN1c1nc(-c2ccccc2)cs1` was tested, and the Potency was inconclusive: 22.4 µM [inhibitor, single point].
For `COc1ccc(C(=O)ON=C2CCN(c3ccc([N+](=O)[O-])cc3)CC2)cc1`, the Potency was inconclusive: 7.94 µM [activator, partial curve].
With `COc1ccc(Nc2oc(COc3ccc(C)cc3)nc2C#N)cc1` the Potency was inconclusive: 17.8 µM [activator, partial curve, poor fit].
`CCc1ccc2nc(Nc3ncc(C(C)=O)c(C)n3)nc(C)c2c1` was tested, and the Potency was inconclusive: 0.316 µM [inhibitor, full curve, poor fit].
For `CCOC(=O)C(=O)Nc1nccs1`, the Potency was “inactive”.
With `CCOC(=O)CNS(=O)(=O)c1cc(-c2nn(C)c(=O)c3ccccc23)ccc1C` the Potency was inconclusive: 0.355 µM [activator, full curve].
With `O=C(c1ccc2c(c1)OCCO2)C1CCN(C(=O)c2ccc(F)c(F)c2)CC1` the Potency was inconclusive: 11.2 µM [activator, partial curve].
`O=C(Cc1c(Sc2ccccc2)c2ccccc2n1Cc1ccccc1)NCCO` was tested, and the Potency was inconclusive: 8.91 µM [activator, single point].
`CCn1ccnc1CN(C)Cc1cn(-c2ccc(C)cc2)nc1-c1cccc(C)c1` was tested, and the Potency was active: 1.58 µM.
For `CC(=O)Nc1sc(N/N=C\c2ccccc2F)nc1-c1cccs1`, the Potency was inconclusive: 35.5 µM [inhibitor, single point].
With `CCSc1cc(C)nc2c(-c3ccccc3)c(C)nn12` the Potency was “inactive”.
`COc1cccc(N2CC(C(=O)Nc3nnc(SCC(=O)N4CCOCC4)s3)CC2=O)c1` (centres undefined) was tested, and the Potency was “inactive”.
For `O=C(NNC(=O)c1cccnc1SCc1cccc([N+](=O)[O-])c1)c1ccc(F)cc1`, the Potency was inconclusive: 22.4 µM [inhibitor, single point].
In the case of `CCOC(=O)N1CCC(NC(=O)C2CCN(C(=O)c3cc4oc(C)cc4n3Cc3c(F)cccc3Cl)CC2)CC1`, the Potency is reported as inconclusive: 2.51 µM [activator, partial curve].
For `Cc1nc(SCC(=O)c2cccc([N+](=O)[O-])c2)n[nH]1`, the Potency was active: 12.6 µM.
`COc1cc2c(=O)n(CCC(=O)NCC3CCCO3)c(=O)n(CC(=O)Nc3ccc(C)cc3C)c2cc1OC` (centres undefined) was tested, and the Potency was “inactive”.
For `CCNc1ccc(C(=O)OCC(=O)NCCN2C(=O)CSC2=O)cc1[N+](=O)[O-]`, the Potency was inconclusive: 7.94 µM [activator, partial curve, poor fit].
For `O=C(N/N=C1\CCc2ccccc21)c1ccccc1O`, the Potency was inconclusive: 15.8 µM [inhibitor, single point].
In the case of `CCn1c(=N)n(CC(=O)c2ccc(Br)s2)c2ccccc21`, the Potency is reported as inconclusive: 35.5 µM [inhibitor, single point].
With `Cc1[nH]n(-c2ccccc2)c(=O)c1C(=O)c1ccccc1` the Potency was inconclusive: 22.4 µM [inhibitor, single point].
For `COCC(=O)Nc1ccccc1C(=O)NC(C)C`, the activity change, negative = inhibition was inactive: 33.1% [at 0.365 µM].
In the case of `CCC1CCCCN1C(=O)COc1c(Br)cc(Br)c2cccnc12` (centres undefined), the Potency is reported as active: 12.6 µM.
For `Cc1ccc(C)c(-c2csc(NC(=O)c3cnccn3)n2)c1`, the Potency was active: 0.501 µM.
`CC(=O)Nc1ccc(NC(=O)C2CCC(N3C(=O)C4C5C=CC(C6CC56)C4C3=O)CC2)cc1` (centres undefined) was tested, and the Potency was inconclusive: 35.5 µM [inhibitor, single point].
With `Cc1ccccc1N1CCN(S(=O)(=O)c2cccs2)CC1` the Potency was “inactive”.
% is set by controls: 0 for no effect and ±100 for the full control effect; potency is the fitted concentration of half-maximal effect.
Note: nearly all actives have a fitted effect of over 60% in size.
